Experimental data from PubChem BioAssay AID504465 (National Center for Advancing Translational Sciences (NCATS), 2011).
The campaign covered roughly 2,100 compounds. About 210 (10%) were called active. The shares of active, inactive and inconclusive entries below differ from those in the screen. Calls come from the whole dose curve; as a rule, active = well fitted inhibition curve with a large enough effect; inconclusive = small, poorly fitted or top-dose-only effect, or effect the other way; inactive = no such curve, though single readings can be large or run the other way. Potencies of inconclusive entries are doubtful fits and often do not repeat.

experiment: IN Cell qHTS Assay for Inhibitors of the mTORC1 Signaling Pathway in MEF (Tsc2-/-, p53-/-) Cells: Sytravon; details: phospho-rpS6 immunofluorescence, 24 h; activity, negative = inhibition: at 38.3 µM (top of the series); note: nearly all actives have a fitted effect of over 60% in size;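 for activity, negative = inhibition: plate controls were DMSO wells for no effect and 7.5 nM rapamycin full pathway inhibition for full effect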
Outline: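 Tsc2-/-, p53-/- MEFs (empty-vector) treated with compound 24 h at 37 degree Celsius, then fixed and stained for phospho-rpS6 Ser235/236 (Alexa-488) plus Hoechst. Reported as % positive cells, thresholds set against 7.5 nM rapamycin and DMSO wells.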
Potency is the fitted concentration of half-maximal effect.

| SMILES | activity, negative = inhibition | Potency |
| --- | --- | --- |
| CCc1ccc(CNC(=O)Cn2nc(-c3ccc(C)cc3)ccc2=O)cc1 | inactive: 6.25% |  |
| CC1CCCN(CCCNC(=O)c2ccc3c(c2)N(Cc2ccc(Cl)cc2)C(=O)c2ccccc2S3(=O)=O)C1 (centres undefined) |  | inconclusive: 13.1 µM [falling, partial curve, poor fit] |
| Cc1ccccc1C(=O)Nc1cccc(OCc2cc(=O)n3cccc(C)c3n2)c1 | inactive: -3.41% |  |
| CSc1ncc(Cl)c(C(=O)N(C)c2ccccc2)n1 | inactive: -7.39% |  |
| COc1ccccc1Nc1nc(N)nc(N)c1S(=O)(=O)c1ccccc1 |  | inconclusive: 23.3 µM [falling, single point] |
| COc1ccc(-c2cc(C(F)(F)F)n3ncc(-c4ccccc4)c3n2)cc1 |  | inconclusive: 4.65 µM [activator, partial curve, poor fit] |
| COc1cc2c(cc1NC(=O)COc1ccc(Br)cc1)oc1ccccc12 |  | inconclusive: 0.0052 µM [activator, full curve, poor fit] |
| CCCCCOc1ccccc1CN1C(=O)C(=O)c2cc(C)ccc21 |  | inconclusive: 0.585 µM [falling, full curve, poor fit] |
| COc1ccccc1NC(=O)CSc1ccc(-c2ccccn2)nn1 |  | inconclusive: 2.93 µM [falling, full curve] |
| CCCNC(=O)CSc1c2c(nc3ccc(Cl)cc13)CCCC2 |  | inconclusive: 23.3 µM [falling, single point] |
| CCc1cccc(NC(=O)CSc2nc3ccccc3nc2N2CCCCC2)c1 |  | inconclusive: 0.656 µM [activator, full curve, poor fit] |
| CCOC(=O)Cc1c(C)nc2cc(-c3ccc(C(C)(C)C)cc3)nn2c1C |  | inconclusive: 23.3 µM [falling, single point] |
| COc1ccc(N2CCN(C(=O)C(C)n3nc(C)c4sc5ccccc5c4c3=O)CC2)cc1 (centres undefined) |  | active: 1.85 µM |
| Cc1[nH]c2ccccc2c1C1(O)C(=O)N(Cc2ccccc2)c2ccc(Cl)cc21 (centres undefined) |  | inconclusive: 23.3 µM [falling, single point] |
| O=C(CSc1oc(-c2ccc(F)cc2)nc1S(=O)(=O)c1ccccc1)NC1CCCCC1 |  | inconclusive: 0.261 µM [activator, full curve] |
| CCCCNC(=O)c1ccc2c(c1)N=C(CC)c1ccccc1S2 | inactive: 29.1% |  |
| CC1=C(c2ccc(C)c(C)c2)S(=O)(=O)N(Cc2ccc(C(=O)Nc3cc(F)ccc3F)cc2)C1=O | inactive: -0.206% |  |
| Cc1ccc(NC(=O)c2nc(S(=O)(=O)Cc3ccc(F)cc3)ncc2Cl)cc1C |  | active: 1.65 µM |
| CC(=O)c1cccc(NC(=O)CCn2nc(C)c(S(=O)(=O)N3CCCCC3)c2C)c1 |  | inconclusive: 7.36 µM [falling, partial curve, poor fit] |
| CCCC(=O)N1c2ccccc2-c2nnc(SC)nc2OC1c1sccc1C (centres undefined) |  | inconclusive: 16.5 µM [falling, single point] |
| O=C(CCS(=O)(=O)c1ccccc1)N(Cc1cccnc1)c1nc2c(F)cccc2s1 |  | inconclusive: 7.36 µM [falling, single point] |
| COc1cccc(-c2nc3c(c(SCC(=O)Nc4cccc(C)c4C)n2)Cc2c(CO)cnc(C)c2O3)c1 | inactive: -0.395% |  |
| CC1=Nc2cc(C(=O)NC3CCCC3)ccc2Sc2ccc(Br)cc21 | inactive: 5.6% |  |

| SMILES | activity, negative = inhibition | Potency |
| --- | --- | --- |
| COc1ccccc1C(=O)NCC1(N2CCN(C)CC2)CCCCC1 |  | inconclusive: 3.29 µM [falling, full curve, poor fit] |
| CCCCN(CC)CCNC(=O)c1cc2c(-c3ccc(Cl)cc3)nn(C)c2s1 |  | inconclusive: 18.5 µM [falling, single point] |
| COc1ccc(OC)c(NC(=O)c2c(NCc3ccc(C)o3)sc3c2CCC(C)C3)c1 (centres undefined) | inactive: 0% |  |
| COc1ccc(-c2nc(CN3CCC(C(=O)NCCCN4CCN(c5ccccc5F)CC4)CC3)c(C)o2)cc1OC |  | active: 13.1 µM |
| Cc1cccc(OCc2ccc(-c3nc(C#N)c(NCCN(C)C)o3)o2)c1 |  | active: 5.85 µM |
| Cc1cc(-c2ccc(C)c(S(=O)(=O)N3CCOc4ccc(Cl)cc43)c2)on1 | inactive: -4.75% |  |
| CCOC(=O)c1cnc2c(Cl)cc(Cl)cc2c1Nc1ccccc1OC |  | inconclusive: 23.3 µM [falling, single point] |
| CCOc1ccccc1NC(=O)Cn1c(=O)n(CCC(=O)NCc2ccc3c(c2)OCO3)c(=O)c2ccccc21 |  | active: 4.65 µM |
| O=C(Nc1ccc2oc(-c3cc(Br)ccc3Cl)nc2c1)c1cc2ccccc2o1 |  | inconclusive: 2.07 µM [falling, full curve, poor fit] |
| Cc1ccccc1OCCn1c(=N)n(C(C)C)c2ccccc21 |  | active: 9.27 µM |
| CCOc1cc(CNc2ccc(O)cc2)cc(Cl)c1OCc1ccccc1 | inactive: -100% |  |
| CCCCNC(=O)CSc1c2c(nc3ccc(Cl)cc13)CCCC2 |  | inconclusive: 3.29 µM [activator, partial curve, poor fit] |
| O=C(NCc1ccccc1Cl)C1CCCN(c2nc3ccccc3n3cccc23)C1 (centres undefined) | inactive: -2.13% |  |
| CC1=C(C(=O)Nc2ccc(C)cc2C)C(c2ccc(C(C)C)cc2)n2nc(C(F)(F)F)nc2N1 (centres undefined) |  | inconclusive: 26.1 µM [falling, single point] |
| Cc1cc(C)c(-c2n[nH]c3c2C(c2ccccc2F)N(CCO)C3=O)c(O)c1 (centres undefined) |  | inconclusive: 20.7 µM [falling, single point] |
| CCOc1ccccc1CNC(=O)CCc1cn(C)c2ccccc12 | inactive: 6.25% |  |
| CC(C)c1ccc(/C=C(\C#N)c2nc(-c3ccc(O)cc3)cs2)cc1 |  | inconclusive: 23.3 µM [falling, single point] |
| CCOc1ccc(Nc2oc(-c3ccc(COc4ccc(C)cc4)o3)nc2C#N)cc1 |  | inconclusive: 0.656 µM [falling, full curve, poor fit] |
| CCCOCc1cc(CN2CCN(c3ccccc3OC)CC2)c(O)c2ncccc12 |  | inconclusive: 5.85 µM [falling, partial curve, poor fit] |
| CCOc1ccc(C(=O)Nc2ccc3nc4c(c(Nc5ccccc5OC)c3c2)CCCC4)cc1 |  | inconclusive: 4.65 µM [falling, full curve, poor fit] |
| CCOC(=O)c1ccc(NC(=O)c2nc(S(=O)(=O)Cc3ccccc3)ncc2Cl)cc1 |  | inconclusive: 14.7 µM [falling, single point] |
| COc1ccc(NC(=O)c2c(NCc3ccc(C)o3)sc3c2CCC(C)C3)cc1 (centres undefined) | inactive: 0% |  |
| O=C(NCCCN1CCN(c2ccc(F)cc2)CC1)c1cc2c(s1)-c1ccccc1OC2 |  | inconclusive: 23.3 µM [falling, single point] |

Three entries from above, bar-delimited:
SMILES | activity, negative = inhibition | Potency
Cc1ccccc1C(=O)Nc1cccc(OCc2cc(=O)n3cccc(C)c3n2)c1 | inactive: -3.41% | 
CSc1ncc(Cl)c(C(=O)N(C)c2ccccc2)n1 | inactive: -7.39% | 
COc1ccccc1Nc1nc(N)nc(N)c1S(=O)(=O)c1ccccc1 |  | inconclusive: 23.3 µM [falling, single point]

The results go on:

| SMILES | activity, negative = inhibition | Potency |
| --- | --- | --- |
| CCN(CC)CCOC(=O)c1ccc(NC(=O)c2nn(-c3ccc(C)cc3)c(=O)c3c2c2ccccc2n3C)cc1 |  | inconclusive: 0.826 µM [falling, full curve, poor fit] |
| Cc1cccc(-c2nc3cc(NC(=O)Cc4ccc(Cl)cc4)ccc3o2)c1 | inactive: -15.8% |  |
| CCN(CC)CCn1c(=N)n(CC(O)COc2ccccc2C)c2ccccc21 (centres undefined) |  | active: 5.85 µM |
| Cc1cccc(C(CC(=O)NCC2(c3ccccc3)CCCC2)c2ccccc2)c1O (centres undefined) | inactive: -74% |  |
| COc1ccc(NC(=O)CCCS(=O)(=O)c2nc(-c3ccc(OC)c(OC)c3)cc(C(F)(F)F)n2)cc1OC |  | inconclusive: 0.208 µM [falling, partial curve, poor fit] |
| CC(C)c1ccc(NC(=O)C2CCN(c3nc(-c4ccc(C(C)C)cc4)no3)CC2)cc1 |  | inconclusive: 23.3 µM [falling, single point] |
| CC(=O)Nc1ccc(NC(=O)c2ccc(COc3ccc(Cl)cc3Cl)o2)cc1 |  | inconclusive: 14.7 µM [falling, single point] |
| CCNS(=O)(=O)c1cc(-c2nnc(Nc3cccc(C(F)(F)F)c3)c3ccccc23)ccc1C |  | inconclusive: 14.7 µM [falling, single point] |
| CCOc1ccc(N2CC(C)Cn3c2nc2c3c(=O)n(CC(=O)O)c(=O)n2C)cc1 (centres undefined) |  | inconclusive: 23.3 µM [falling, single point] |
| COCc1oc2ccc(NS(=O)(=O)c3ccc(C)cc3)cc2c1C(=O)OC | inactive: -1.83% |  |
| CCc1ccc2oc(-c3ccc(NC(=O)c4cccc(Cl)c4Cl)cc3)nc2c1 |  | inconclusive: 26.1 µM [falling, single point] |
| CCOc1ccc(/C=C/c2nc(C#N)c(NCCCN(C)C)o2)cc1 | inactive: -10.9% |  |
| Cc1ccc(-n2cnc3cc(C(=O)NCCC4=CCCCC4)ccc32)cc1Cl | inactive: 6.25% |  |
| Cc1ccc(Oc2nc3c(c(=O)n(Cc4ccccc4Cl)c(=O)n3C)n2C)cc1C |  | inconclusive: 0.147 µM [activator, full curve, poor fit] |
| Cc1ccc(CN(Cc2ccco2)C(=O)c2cccc(C)c2)cc1 |  | inconclusive: 2.93 µM [falling, single point] |
| COc1ccc(Cc2nnc(C(=O)NCCCN3CCN(c4ccccc4F)CC3)o2)cc1OC |  | inconclusive: 14.7 µM [falling, single point] |
| COc1ccc(C2c3c(-c4ccccc4O)n[nH]c3C(=O)N2CCc2ccccc2)cc1 (centres undefined) | inactive: -21.4% |  |
| COc1ccc2c(c1)c(=O)c(C(=O)c1ccc(C)cc1)cn2Cc1ccccc1F | inactive: -12.8% |  |
| Cc1ccc(NC(=O)c2nc(S(=O)(=O)Cc3cccc(C)c3)ncc2Cl)cc1 |  | active: 6.56 µM |
| Cc1cc(NC(=O)C2CCC(CNS(=O)(=O)c3ccc(Br)s3)CC2)ccc1Br (centres undefined) | inactive: -23% |  |
| CCC(=O)Nc1cc(-c2nc3cc(C)cc(C)c3o2)ccc1C | inactive: -20.3% |  |
| Cc1cc(C)cc(NC(c2cccc(Cl)c2)c2nnc(-c3ccccc3)o2)c1 (centres undefined) | inactive: 20.8% |  |
| CCN1CCN(c2cc(C)c3cc(NC(=O)c4cc(Br)ccc4Cl)ccc3n2)CC1 |  | inconclusive: 14.7 µM [falling, single point] |

Retrieved one by one from above, two records:

| SMILES | activity, negative = inhibition | Potency |
| --- | --- | --- |
| COc1ccc(OC)c(NC(=O)c2c(NCc3ccc(C)o3)sc3c2CCC(C)C3)c1 (centres undefined) | inactive: 0% |  |
| O=C(CSc1oc(-c2ccc(F)cc2)nc1S(=O)(=O)c1ccccc1)NC1CCCCC1 |  | inconclusive: 0.261 µM [activator, full curve] |
